## Cleaved PARP in drug-treated melanoma cells

Source: doi:10.1371/journal.pone.0140310, primary screening data, rounded.

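Human melanoma cells were exposed to two drugs together for 72 h in 1,536-well plates and read by automated microscopy after fixing and staining. Each value is the cleaved-PARP-positive fraction of nuclei relative to DMSO-treated wells, in %, so that 100 equals the control and higher values mean more apoptosis. Every drug was used at one fixed concentration, the higher of two screened. No replicate spread is given; individual values may be noisy. Basal and induced levels differ widely between cell lines.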 This is part of the screen, not chosen by result.

First drug in all entries: tipifarnib, 50 nM, Cn1cncc1[C@@](N)(c1ccc(Cl)cc1)c1ccc2c(c1)c(-c1cccc(Cl)c1)cc(=O)n2C

COc1cc(Nc2ncc(F)c(Nc3ccc4c(n3)NC(=O)C(C)(C)O4)n2)cc(OC)c1OC at 2000 nM gave UACC-257: 41.7; LOX IMVI: 148; WM1745: 169; SK-MEL-28: 106; WM3619: 174; COLO 792: 701. For CS(=O)(=O)c1ccc(C(=O)Nc2ccc(Cl)c(-c3ccccn3)c2)c(Cl)c1 at 5000 nM the values were UACC-257: 63.7; LOX IMVI: 233; WM1745: 94.5; SK-MEL-28: 161; WM3619: 101; COLO 792: 246. For C[C@]1(c2nc3c(C(N)=O)cccc3[nH]2)CCCN1 at 7000 nM the values were UACC-257: 58.2; LOX IMVI: 275; WM1745: 274; SK-MEL-28: 122; WM3619: 138; COLO 792: 162. C[C@@H](Oc1cc(-c2cnn(C3CCNCC3)c2)cnc1N)c1c(Cl)ccc(F)c1Cl at 1000 nM gave UACC-257: 46.6; LOX IMVI: 163; WM1745: 118; SK-MEL-28: 79.2; WM3619: 151; COLO 792: 101.

O=S(=O)(c1ccccc1)N(CC(F)(F)F)c1ccc(C(O)(C(F)(F)F)C(F)(F)F)cc1 at 7000 nM gave UACC-257: 41.6; LOX IMVI: 86.8; WM1745: 120; SK-MEL-28: 106; WM3619: 147; COLO 792: 140. Results for c1cc(-c2cnn3cc(-c4ccc(OCCN5CCCCC5)cc4)cnc23)ccn1 at 2000 nM are UACC-257: 19.4; LOX IMVI: 422; WM1745: 169; SK-MEL-28: 228; WM3619: 127; COLO 792: 172. With COc1cc(N2CCC(N3CCN(C)CC3)CC2)ccc1Nc1ncc(Cl)c(Nc2ccccc2S(=O)(=O)C(C)C)n1 at 400 nM the screen read UACC-257: 40.7; LOX IMVI: 396; WM1745: 196; SK-MEL-28: 126; WM3619: 135; COLO 792: 98.0. C#Cc1cccc(Nc2ncnc3cc(OCCOC)c(OCCOC)cc23)c1 at 4000 nM gave UACC-257: 705; LOX IMVI: 31.9; WM1745: 119; SK-MEL-28: 81.3; WM3619: 121; COLO 792: 386.

O=C(O)c1ccc(-c2c[nH]c3ncc(-c4ccccc4)cc23)cc1C1CCCC1 at 800 nM gave UACC-257: 119; LOX IMVI: 66.6; WM1745: 276; SK-MEL-28: 234; WM3619: 311; COLO 792: 210. Results for CC[C@]1(O)C[C@H]2CN(CCc3c([nH]c4ccccc34)[C@@](C(=O)OC)(c3cc4c(cc3OC)N(C=O)[C@H]3[C@@](O)(C(=O)OC)[C@H](OC(C)=O)[C@]5(CC)C=CCN6CC[C@]43[C@@H]65)C2)C1 at 0.5 nM are UACC-257: 577; LOX IMVI: 233; WM1745: 82.6; SK-MEL-28: 164; WM3619: 225; COLO 792: 74.0. With C[C@@H](N)c1ccc(C(=O)Nc2ccnc3[nH]ccc23)cc1 at 2000 nM the screen read UACC-257: 85.6; LOX IMVI: 257; WM1745: 126; SK-MEL-28: 396; WM3619: 82.4; COLO 792: 251. Results for C[As](C)SC[C@H](NC(=O)CC[C@H](N)C(=O)O)C(=O)NCC(=O)O at 2000 nM are UACC-257: 134; LOX IMVI: 182; WM1745: 73.0; SK-MEL-28: 64.8; WM3619: 90.8; COLO 792: 147.

For O=C(O)c1ccc2c(c1)nc(Nc1cccc(Cl)c1)c1ccncc12 at 2000 nM the values were UACC-257: 88.8; LOX IMVI: 1140; WM1745: 103; SK-MEL-28: 159; WM3619: 137; COLO 792: 368. With CCCCCCCCc1ccc(CCC(N)(CO)CO)cc1 at 10000 nM the screen read UACC-257: 213; LOX IMVI: 956; WM1745: 1280; SK-MEL-28: 2000; WM3619: 1490; COLO 792: 7370. With Cc1cc(Nc2cc(N3CCN(C)CC3)nc(Sc3ccc(NC(=O)C4CC4)cc3)n2)n[nH]1 at 30 nM the screen read UACC-257: 75.5; LOX IMVI: 145; WM1745: 116; SK-MEL-28: 292; WM3619: 110; COLO 792: 127. Cc1ccc(Nc2nccc(N(C)c3ccc4c(C)n(C)nc4c3)n2)cc1S(N)(=O)=O at 2000 nM gave UACC-257: 77.5; LOX IMVI: 127; WM1745: 63.5; SK-MEL-28: 124; WM3619: 122; COLO 792: 74.7.

Results for CN1CCN(c2ccc3nc(-c4c(N)c5c(F)cccc5[nH]c4=O)[nH]c3c2)CC1 at 500 nM are UACC-257: 177; LOX IMVI: 143; WM1745: 155; SK-MEL-28: 81.4; WM3619: 127; COLO 792: 203. Cn1cnc2c(F)c(Nc3ccc(Br)cc3Cl)c(C(=O)NOCCO)cc21 at 75 nM gave UACC-257: 48.4; LOX IMVI: 318; WM1745: 103; SK-MEL-28: 77.9; WM3619: 135; COLO 792: 135. With CCN(CC)CCNC(=O)c1c(C)[nH]c(/C=C2\C(=O)Nc3ccc(F)cc32)c1C at 2000 nM the screen read UACC-257: 36.9; LOX IMVI: 39.0; WM1745: 211; SK-MEL-28: 95.0; WM3619: 165; COLO 792: 580. Cn1cc(/C=C2\C(=O)Nc3cccnc32)c2ccccc21 at 2000 nM gave UACC-257: 17.1; LOX IMVI: 28.4; WM1745: 270; SK-MEL-28: 106; WM3619: 121; COLO 792: 39.7.

For NC1(c2ccc(-c3nc4ccn5c(=O)[nH]nc5c4cc3-c3ccccc3)cc2)CCC1 at 2000 nM the values were UACC-257: 124; LOX IMVI: 167; WM1745: 91.6; SK-MEL-28: 73.1; WM3619: 234; COLO 792: 59.2. For O=C(Nc1cccc(Cl)c1)Nc1ncc(CCNc2ncnc3ccsc23)s1 at 4 nM the values were UACC-257: 86.7; LOX IMVI: 198; WM1745: 112; SK-MEL-28: 191; WM3619: 142; COLO 792: 245. Clc1ccc(Nc2nnc(Cc3ccncc3)c3ccccc23)cc1 at 10000 nM gave UACC-257: 50.4; LOX IMVI: 120; WM1745: 175; SK-MEL-28: 105; WM3619: 135; COLO 792: 277. With CCCCCCCCCCCC1=C(O)C(=O)C=C(O)C1=O at 6000 nM the screen read UACC-257: 20.2; LOX IMVI: 165; WM1745: 642; SK-MEL-28: 210; WM3619: 146; COLO 792: 109.

For C/C(O)=C(\C#N)C(=O)Nc1cc(Br)ccc1Br at 10000 nM the values were UACC-257: 14.4; LOX IMVI: 73.4; WM1745: 94.5; SK-MEL-28: 158; WM3619: 126; COLO 792: 77.7. With COCC[n+]1c2c(n(Cc3cnccn3)c1C)C(=O)c1ccccc1C2=O at 2 nM the screen read UACC-257: 1750; LOX IMVI: 123; WM1745: 65.9; SK-MEL-28: 810; WM3619: 85.8; COLO 792: 381.

For reference, 3 entries once more:

* C[C@@H](Oc1cc(-c2cnn(C3CCNCC3)c2)cnc1N)c1c(Cl)ccc(F)c1Cl at 1000 nM | UACC-257: 46.6; LOX IMVI: 163; WM1745: 118; SK-MEL-28: 79.2; WM3619: 151; COLO 792: 101
* COc1cc(Nc2ncc(F)c(Nc3ccc4c(n3)NC(=O)C(C)(C)O4)n2)cc(OC)c1OC at 2000 nM | UACC-257: 41.7; LOX IMVI: 148; WM1745: 169; SK-MEL-28: 106; WM3619: 174; COLO 792: 701
* NC1(c2ccc(-c3nc4ccn5c(=O)[nH]nc5c4cc3-c3ccccc3)cc2)CCC1 at 2000 nM | UACC-257: 124; LOX IMVI: 167; WM1745: 91.6; SK-MEL-28: 73.1; WM3619: 234; COLO 792: 59.2